These are yes or no findings as the source states them, for the method shown. In cells and extracts the contact can be indirect. Some entries that bind do so weakly or less than the wild type. Blank lines part the entries; values can stand above or below the molecule they belong to.
Molecular target: GRASP65 (human (endogenous in WI-26)) (UniProt Q9BQQ3)
Assay: co-IP; WI-26 cells transfected with a GNPTAB-Myc vector, lysed 24 h later in Triton lysis buffer (50 mM Tris-HCl pH 7.5, 1% Triton X-100, 150 mM NaCl); IP with mouse monoclonal anti-GRASP55, anti-GRASP65 or anti-Myc for 3-4 h at 4 °C, protein G agarose overnight, 4 washes; immunoblot (Fig. 7D)

The chains behind the UniProt entries cited, without tags or fusion partners.
UniProt Q9BQQ3: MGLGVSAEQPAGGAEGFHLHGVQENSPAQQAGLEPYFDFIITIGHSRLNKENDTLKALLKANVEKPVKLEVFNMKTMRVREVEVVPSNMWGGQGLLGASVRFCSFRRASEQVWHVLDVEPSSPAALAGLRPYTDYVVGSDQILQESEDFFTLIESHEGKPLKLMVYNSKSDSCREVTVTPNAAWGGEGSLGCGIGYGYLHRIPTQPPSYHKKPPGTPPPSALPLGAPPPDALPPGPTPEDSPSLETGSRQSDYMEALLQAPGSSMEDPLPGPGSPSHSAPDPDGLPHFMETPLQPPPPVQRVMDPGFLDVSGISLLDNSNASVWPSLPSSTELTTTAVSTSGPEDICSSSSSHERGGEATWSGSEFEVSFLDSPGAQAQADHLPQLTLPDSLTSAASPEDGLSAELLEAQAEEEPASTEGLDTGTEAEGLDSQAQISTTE
UniProt Q9H4A6: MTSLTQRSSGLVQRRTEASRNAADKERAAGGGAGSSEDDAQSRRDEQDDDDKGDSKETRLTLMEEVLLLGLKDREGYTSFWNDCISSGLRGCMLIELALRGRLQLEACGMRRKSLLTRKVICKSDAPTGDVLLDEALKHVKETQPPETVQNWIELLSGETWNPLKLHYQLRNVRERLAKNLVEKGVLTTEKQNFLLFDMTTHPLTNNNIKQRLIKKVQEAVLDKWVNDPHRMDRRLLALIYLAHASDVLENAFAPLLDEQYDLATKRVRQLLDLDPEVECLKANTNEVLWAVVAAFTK

- binding: binds
Molecule: GOLPH3 (from UniProt Q9H4A6 1-298)

- binding: no binding
Molecule: Myc-tagged GNPTAB (GlcNAc-1-phosphotransferase alpha/beta precursor) (from UniProt Q3T906-1 1-1256)

- binding: no binding
B1: LYSET (protein, UniProt Q8N6I4 1-163)
chain: MPKPPDYSELSDSLTLAVGTGRFSGPLHRAWRMMNFRQRMGWIGVGLYLLASAAAFYYVFEISETYNRLALEHIQQHPEEPLEGTTWTHSLKAQLLSLPFWVWTVIFLVPYLQMFLFLYSCTRADPKTVGYCIIPICLAVICNRHQAFVKASNQISRLQLIDT
